Consider 38 targets from the supplement of paper PMC10849652.

By UniProt entry, the sequences of proteins in these tests, tags left out. Where a name states a change or a piece, a line headed by the entry shows the natural chain unless it says otherwise.
UniProt Q9UIM3: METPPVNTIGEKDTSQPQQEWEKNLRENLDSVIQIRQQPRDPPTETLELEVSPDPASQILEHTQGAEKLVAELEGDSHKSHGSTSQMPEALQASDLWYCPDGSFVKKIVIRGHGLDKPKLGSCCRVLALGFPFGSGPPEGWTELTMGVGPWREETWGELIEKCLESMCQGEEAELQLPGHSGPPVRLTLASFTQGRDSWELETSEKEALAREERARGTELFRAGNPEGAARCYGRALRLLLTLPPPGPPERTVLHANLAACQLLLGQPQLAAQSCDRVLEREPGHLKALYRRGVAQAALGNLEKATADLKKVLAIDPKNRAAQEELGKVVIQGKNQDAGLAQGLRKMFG
UniProt P31995: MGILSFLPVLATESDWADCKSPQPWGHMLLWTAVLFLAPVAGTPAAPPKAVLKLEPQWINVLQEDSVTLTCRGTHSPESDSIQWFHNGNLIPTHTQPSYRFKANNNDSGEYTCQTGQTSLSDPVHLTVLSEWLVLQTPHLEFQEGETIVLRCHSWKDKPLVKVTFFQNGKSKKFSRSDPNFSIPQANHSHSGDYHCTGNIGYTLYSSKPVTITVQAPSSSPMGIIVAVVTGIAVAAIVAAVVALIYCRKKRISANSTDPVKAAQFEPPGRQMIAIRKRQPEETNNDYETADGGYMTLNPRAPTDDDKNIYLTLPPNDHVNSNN
UniProt Q6UN15: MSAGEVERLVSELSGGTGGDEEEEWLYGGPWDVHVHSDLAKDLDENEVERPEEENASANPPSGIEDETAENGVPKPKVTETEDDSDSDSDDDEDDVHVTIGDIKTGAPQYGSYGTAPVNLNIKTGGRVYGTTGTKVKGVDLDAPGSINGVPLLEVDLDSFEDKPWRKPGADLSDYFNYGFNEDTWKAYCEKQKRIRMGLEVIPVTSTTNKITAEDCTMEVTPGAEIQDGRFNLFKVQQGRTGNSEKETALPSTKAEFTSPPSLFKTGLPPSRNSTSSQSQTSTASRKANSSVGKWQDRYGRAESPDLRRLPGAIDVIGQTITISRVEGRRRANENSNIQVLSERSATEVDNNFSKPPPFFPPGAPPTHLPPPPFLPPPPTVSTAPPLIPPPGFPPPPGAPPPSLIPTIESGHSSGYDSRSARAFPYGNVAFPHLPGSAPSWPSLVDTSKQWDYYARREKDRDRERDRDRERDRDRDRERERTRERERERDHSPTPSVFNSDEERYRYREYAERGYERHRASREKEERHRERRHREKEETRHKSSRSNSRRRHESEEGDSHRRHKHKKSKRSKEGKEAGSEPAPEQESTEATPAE
UniProt Q9NUQ9: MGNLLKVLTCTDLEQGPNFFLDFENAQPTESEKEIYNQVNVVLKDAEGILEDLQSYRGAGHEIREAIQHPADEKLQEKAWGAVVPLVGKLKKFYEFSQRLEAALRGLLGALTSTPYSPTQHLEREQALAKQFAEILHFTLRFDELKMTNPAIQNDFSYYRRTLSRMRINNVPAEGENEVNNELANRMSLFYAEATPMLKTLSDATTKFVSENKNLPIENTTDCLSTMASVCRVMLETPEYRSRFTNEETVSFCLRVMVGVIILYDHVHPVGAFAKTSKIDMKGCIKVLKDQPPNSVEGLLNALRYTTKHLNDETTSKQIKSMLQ
UniProt Q96ND0: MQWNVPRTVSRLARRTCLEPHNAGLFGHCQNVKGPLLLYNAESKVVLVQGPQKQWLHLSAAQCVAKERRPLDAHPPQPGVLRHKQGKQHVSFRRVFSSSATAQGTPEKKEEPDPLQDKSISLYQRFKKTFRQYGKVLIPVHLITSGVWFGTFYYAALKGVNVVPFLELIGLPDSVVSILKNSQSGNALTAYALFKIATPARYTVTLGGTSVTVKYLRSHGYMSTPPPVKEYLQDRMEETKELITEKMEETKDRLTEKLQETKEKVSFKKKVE
UniProt P26885: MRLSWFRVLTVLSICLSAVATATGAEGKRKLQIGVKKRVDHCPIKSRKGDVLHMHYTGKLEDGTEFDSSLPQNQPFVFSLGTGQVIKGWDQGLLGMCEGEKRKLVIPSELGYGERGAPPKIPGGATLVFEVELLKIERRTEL
UniProt Q5T1M5: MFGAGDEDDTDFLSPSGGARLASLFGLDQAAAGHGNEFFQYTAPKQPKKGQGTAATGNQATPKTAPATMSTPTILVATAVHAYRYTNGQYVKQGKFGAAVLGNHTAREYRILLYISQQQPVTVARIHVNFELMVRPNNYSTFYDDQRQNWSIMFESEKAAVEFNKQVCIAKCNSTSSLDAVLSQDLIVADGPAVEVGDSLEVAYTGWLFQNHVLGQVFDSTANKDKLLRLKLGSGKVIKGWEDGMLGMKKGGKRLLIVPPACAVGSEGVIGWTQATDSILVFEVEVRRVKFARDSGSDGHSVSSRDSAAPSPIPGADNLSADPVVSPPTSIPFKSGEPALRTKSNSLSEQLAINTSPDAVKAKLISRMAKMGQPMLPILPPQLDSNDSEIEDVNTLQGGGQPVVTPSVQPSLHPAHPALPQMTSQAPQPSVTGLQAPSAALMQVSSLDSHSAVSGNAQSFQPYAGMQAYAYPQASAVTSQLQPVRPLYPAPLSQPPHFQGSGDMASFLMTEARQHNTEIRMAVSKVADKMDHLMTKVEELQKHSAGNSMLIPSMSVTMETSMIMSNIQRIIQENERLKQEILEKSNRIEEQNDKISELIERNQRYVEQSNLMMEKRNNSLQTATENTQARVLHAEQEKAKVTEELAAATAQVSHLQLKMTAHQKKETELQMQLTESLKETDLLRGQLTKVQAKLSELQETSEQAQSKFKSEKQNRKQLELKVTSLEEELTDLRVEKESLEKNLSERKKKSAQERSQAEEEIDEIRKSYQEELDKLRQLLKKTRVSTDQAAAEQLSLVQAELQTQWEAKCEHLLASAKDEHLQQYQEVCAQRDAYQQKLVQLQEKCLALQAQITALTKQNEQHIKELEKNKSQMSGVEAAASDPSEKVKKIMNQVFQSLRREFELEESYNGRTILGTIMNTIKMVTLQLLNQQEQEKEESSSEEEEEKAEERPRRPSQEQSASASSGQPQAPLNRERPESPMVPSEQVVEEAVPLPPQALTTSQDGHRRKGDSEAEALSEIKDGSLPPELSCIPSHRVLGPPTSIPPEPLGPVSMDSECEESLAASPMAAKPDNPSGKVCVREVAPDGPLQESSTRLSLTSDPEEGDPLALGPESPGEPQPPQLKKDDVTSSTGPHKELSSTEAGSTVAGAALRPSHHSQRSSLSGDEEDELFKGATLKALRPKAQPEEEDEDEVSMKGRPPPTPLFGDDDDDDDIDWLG
UniProt Q8N3X1: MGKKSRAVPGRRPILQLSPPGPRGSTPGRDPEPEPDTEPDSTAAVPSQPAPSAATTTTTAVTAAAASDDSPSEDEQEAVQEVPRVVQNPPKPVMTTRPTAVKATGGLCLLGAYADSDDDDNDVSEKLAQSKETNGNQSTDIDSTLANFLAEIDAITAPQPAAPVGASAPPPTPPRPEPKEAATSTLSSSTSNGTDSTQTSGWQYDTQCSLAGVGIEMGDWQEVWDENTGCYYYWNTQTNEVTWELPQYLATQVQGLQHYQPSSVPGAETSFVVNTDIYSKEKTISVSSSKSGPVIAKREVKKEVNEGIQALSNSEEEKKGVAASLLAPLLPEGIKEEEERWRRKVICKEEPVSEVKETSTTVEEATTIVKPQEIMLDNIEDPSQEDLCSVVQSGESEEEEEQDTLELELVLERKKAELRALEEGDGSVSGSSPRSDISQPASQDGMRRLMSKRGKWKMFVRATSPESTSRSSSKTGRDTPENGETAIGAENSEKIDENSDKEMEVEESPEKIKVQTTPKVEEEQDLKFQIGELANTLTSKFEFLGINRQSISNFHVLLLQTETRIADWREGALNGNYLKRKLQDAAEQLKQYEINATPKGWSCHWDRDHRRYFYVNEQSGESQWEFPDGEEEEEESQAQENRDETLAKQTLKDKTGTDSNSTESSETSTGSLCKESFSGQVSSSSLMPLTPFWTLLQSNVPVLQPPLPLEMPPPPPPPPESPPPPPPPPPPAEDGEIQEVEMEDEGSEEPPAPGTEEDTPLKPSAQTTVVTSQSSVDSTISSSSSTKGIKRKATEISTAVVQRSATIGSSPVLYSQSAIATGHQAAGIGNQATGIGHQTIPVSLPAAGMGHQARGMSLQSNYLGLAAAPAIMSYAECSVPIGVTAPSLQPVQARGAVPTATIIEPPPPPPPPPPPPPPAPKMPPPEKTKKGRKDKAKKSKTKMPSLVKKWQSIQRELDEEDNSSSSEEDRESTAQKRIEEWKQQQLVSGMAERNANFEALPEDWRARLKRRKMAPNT
UniProt Q5HYJ3: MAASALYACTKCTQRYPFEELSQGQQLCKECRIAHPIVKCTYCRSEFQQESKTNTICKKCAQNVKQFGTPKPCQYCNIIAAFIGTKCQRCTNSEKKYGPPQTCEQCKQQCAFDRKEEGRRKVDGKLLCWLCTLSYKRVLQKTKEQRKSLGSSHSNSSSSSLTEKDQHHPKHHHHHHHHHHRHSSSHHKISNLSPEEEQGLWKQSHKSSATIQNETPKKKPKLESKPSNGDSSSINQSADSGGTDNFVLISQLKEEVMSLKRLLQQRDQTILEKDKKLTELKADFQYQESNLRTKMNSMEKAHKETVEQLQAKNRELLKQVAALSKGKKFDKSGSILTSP
UniProt A6NHQ2: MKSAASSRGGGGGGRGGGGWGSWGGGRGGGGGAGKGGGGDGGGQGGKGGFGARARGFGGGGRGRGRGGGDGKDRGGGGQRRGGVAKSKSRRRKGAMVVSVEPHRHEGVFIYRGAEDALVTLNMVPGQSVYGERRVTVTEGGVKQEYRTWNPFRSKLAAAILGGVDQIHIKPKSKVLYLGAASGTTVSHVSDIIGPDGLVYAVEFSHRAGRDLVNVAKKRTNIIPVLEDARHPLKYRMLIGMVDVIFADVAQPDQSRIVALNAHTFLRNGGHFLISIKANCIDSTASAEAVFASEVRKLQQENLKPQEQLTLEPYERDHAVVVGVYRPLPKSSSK
UniProt Q9NSD9: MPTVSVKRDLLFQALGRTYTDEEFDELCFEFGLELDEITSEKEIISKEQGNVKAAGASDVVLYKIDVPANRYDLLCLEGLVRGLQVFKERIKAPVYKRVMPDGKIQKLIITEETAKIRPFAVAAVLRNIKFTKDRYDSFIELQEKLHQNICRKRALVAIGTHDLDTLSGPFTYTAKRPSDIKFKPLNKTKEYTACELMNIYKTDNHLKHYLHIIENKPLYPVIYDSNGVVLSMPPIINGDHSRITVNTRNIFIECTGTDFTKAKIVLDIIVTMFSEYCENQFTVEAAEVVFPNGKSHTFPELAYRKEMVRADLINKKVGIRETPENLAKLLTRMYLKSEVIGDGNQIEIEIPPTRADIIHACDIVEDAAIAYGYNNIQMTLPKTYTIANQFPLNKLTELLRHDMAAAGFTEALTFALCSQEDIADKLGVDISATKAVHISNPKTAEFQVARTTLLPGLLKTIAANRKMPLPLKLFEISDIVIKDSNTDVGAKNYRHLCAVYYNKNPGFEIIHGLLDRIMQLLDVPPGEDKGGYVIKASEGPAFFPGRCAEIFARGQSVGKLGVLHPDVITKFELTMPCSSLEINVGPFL
UniProt Q8NEZ5: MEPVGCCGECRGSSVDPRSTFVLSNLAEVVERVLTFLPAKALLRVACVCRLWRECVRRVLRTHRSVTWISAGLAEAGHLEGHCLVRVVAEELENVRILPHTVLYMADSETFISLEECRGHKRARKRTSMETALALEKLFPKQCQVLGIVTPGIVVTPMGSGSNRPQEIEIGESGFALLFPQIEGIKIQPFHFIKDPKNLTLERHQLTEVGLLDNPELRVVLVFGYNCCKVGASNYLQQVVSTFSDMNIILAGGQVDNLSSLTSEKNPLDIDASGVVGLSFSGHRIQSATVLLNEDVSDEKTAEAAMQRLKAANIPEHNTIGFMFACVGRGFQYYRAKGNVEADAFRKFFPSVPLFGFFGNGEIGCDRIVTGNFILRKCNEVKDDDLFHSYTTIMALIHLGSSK
UniProt Q9H479: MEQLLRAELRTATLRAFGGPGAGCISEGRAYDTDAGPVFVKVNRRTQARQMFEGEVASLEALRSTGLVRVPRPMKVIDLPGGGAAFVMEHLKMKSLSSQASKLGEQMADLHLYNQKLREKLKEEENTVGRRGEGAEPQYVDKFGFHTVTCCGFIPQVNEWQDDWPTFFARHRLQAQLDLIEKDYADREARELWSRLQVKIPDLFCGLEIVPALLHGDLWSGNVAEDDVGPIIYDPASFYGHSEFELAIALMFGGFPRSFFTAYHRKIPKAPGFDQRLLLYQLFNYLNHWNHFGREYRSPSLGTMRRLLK
UniProt P12318: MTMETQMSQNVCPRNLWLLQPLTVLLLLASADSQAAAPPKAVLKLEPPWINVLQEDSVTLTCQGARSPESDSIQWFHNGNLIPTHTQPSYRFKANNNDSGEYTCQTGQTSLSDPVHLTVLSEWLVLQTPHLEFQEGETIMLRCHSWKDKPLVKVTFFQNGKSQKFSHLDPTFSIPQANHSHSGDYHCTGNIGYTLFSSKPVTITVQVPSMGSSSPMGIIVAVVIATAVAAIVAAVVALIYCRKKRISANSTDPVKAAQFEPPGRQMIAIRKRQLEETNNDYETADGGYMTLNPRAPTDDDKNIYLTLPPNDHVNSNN

Some of the results follow.

Compound in the experiment: CCN(CC)Cc1ccc2cc(COC(=O)Nc3ccc(C(=O)NO)cc3)ccc2c1 [givinostat]
The experiment is described as follows: log2 fold change, soluble protein after heating vs DMSO (PISA); higher = thermal stabilisation; K562 cells, 10 uM, 30 min; active = over 0.2 and 3.5 SD of the protein, either way, in both replicates (recomputed). A digest of the protocol:
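Thermal stability values are relative to control samples and come from duplicates. They are expressed as log2 fold changes. For measurement, K562 cells (2×10^6 cells/mL) received 10 μM compound for 30 min, and aliquots were heated for 3 min over 48°C-58°C, pooled, and extracted at 4°C in PBS with 0.5% NP-40. Soluble protein, the supernatant after 21,000xg for 90 min, was quantified by TMTpro 16plex LC-MS/MS with equalised channel sums.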
For the target FDX1 (UniProt P10109), the log2 fold change is inactive: -0.033.

As to FBXL12 (UniProt Q9NXK8), the log2 fold change was inactive: -0.004.

Take FKBPL (UniProt Q9UIM3): the log2 fold change was inactive: -0.045.

Regarding FCGR2C (UniProt P31995), the log2 fold change is inactive: -0.018.

Turning to FANCB (UniProt Q8NB91), the log2 fold change was inactive: -0.003.

Regarding FIP1L1 (UniProt Q6UN15), the log2 fold change was inactive: 0.017.

In the case of FLVCR1 (UniProt Q9Y5Y0), the log2 fold change was inactive: -0.017.

Regarding FAM49B (UniProt Q9NUQ9), the log2 fold change is inactive: 0.003.

Regarding FAM210A (UniProt Q96ND0), the log2 fold change is inactive: 0.056.

Consider FBXO30 (UniProt Q8TB52), for which the log2 fold change is inactive: -0.005.

As for FKBP2 (UniProt P26885), the log2 fold change was inactive: -0.004.

With FKBP15 (UniProt Q5T1M5), the log2 fold change was inactive: 0.094.

With FAR1 (UniProt Q8WVX9), the log2 fold change was inactive: 0.041.

As to FH (UniProt P07954), the log2 fold change is inactive: -0.032.

With FLII (UniProt Q13045), the log2 fold change was inactive: 0.016.

On to FNBP4 isoform 2 (UniProt Q8N3X1), for which the log2 fold change was inactive: 0.019.

With FAM98B (UniProt Q52LJ0), the log2 fold change is inactive: 0.041.

Regarding FBXL20 (UniProt Q96IG2), the log2 fold change is inactive: -0.049.

Turning to FBXL18 isoform 4 (UniProt Q96ME1), the log2 fold change is inactive: 0.057.

On to FLYWCH2 (UniProt Q96CP2), for which the log2 fold change was inactive: -0.019.

Take FAM76B (UniProt Q5HYJ3): the log2 fold change was inactive: 0.066.

For the target FASN (UniProt P49327), the log2 fold change is inactive: 0.002.

Regarding FKBP1A (UniProt P62942), the log2 fold change is inactive: 0.067.

As for FBLL1 (UniProt A6NHQ2), the log2 fold change is inactive: 0.122.

In the case of FBXO5 (UniProt Q9UKT4), the log2 fold change was inactive: -0.009.

For FARSB (UniProt Q9NSD9), the log2 fold change is inactive: 0.026.

For the target FLOT1 (UniProt O75955), the log2 fold change is inactive: 0.097.

As to FCSK isoform 2 (UniProt Q8N0W3), the log2 fold change is inactive: 0.003.

FBXO22 (UniProt Q8NEZ5): the log2 fold change is inactive: 0.

For the target FN3K (UniProt Q9H479), the log2 fold change was inactive: -0.065.

As for FCGR2A (UniProt P12318), the log2 fold change was inactive: -0.044.

With FN3KRP (UniProt Q9HA64), the log2 fold change is inactive: -0.026.

FAM98A (UniProt Q8NCA5): the log2 fold change is inactive: 0.036.

In the case of FKBP9 (UniProt O95302), the log2 fold change is inactive: -0.047.

As for FAU (UniProt P62861), the log2 fold change is inactive: 0.035.

As to FKBP5 (UniProt Q13451), the log2 fold change was inactive: 0.115.

FDX2 (UniProt Q6P4F2): the log2 fold change is inactive: -0.07.

FAM32A (UniProt Q9Y421): the log2 fold change was inactive: -0.057.
